According to patent US8461328B2, “Tricyclic heterocyclic compounds, compositions and methods of use thereof” (Genentech, Inc., priority 2010, dated 2013):
Some of these results come from one statement about several compounds together.

Protein sequences, listed by entry. Tags and fused reporters are not part of them. Residues count along the entry.
UniProt P23458, 852-1154: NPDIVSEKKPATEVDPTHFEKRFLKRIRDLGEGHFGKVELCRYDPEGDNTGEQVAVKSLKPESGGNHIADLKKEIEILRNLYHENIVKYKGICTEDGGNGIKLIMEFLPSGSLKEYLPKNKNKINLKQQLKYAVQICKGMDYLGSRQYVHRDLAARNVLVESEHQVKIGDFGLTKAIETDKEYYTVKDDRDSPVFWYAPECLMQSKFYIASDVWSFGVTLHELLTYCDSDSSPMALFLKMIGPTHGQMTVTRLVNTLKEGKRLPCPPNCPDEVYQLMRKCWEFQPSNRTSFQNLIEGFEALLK

Molecular target: T1, human JAK1 kinase domain (Homo sapiens, UniProt P23458)
T1 construct: made in house; host or cells: SF9 insect cells (baculovirus)
Assay: JAK1 inhibition assay (Example B), Caliper LabChip peptide phosphorylation
Format: biochemical
Details: 1.5 nM JAK1, 25 μM ATP, Morrison tight binding model; read-out: Ki in a JAK1 kinase activity assay (Example B)

SMILES	Ki
N#CCCN1CCC(n2c(CC(=O)N3CCCC3)nc3cnc4[nH]ccc4c32)CC1 [Example 270, 3-{4-[2-(2-Oxo-2-pyrrolidin-1-yl-ethyl)-6H-1,3,5,6-tetraaza-as-indacen-1-yl]-piperidin-1-yl}-propionitrile]	< 500 nM
Cc1nc2cnc3[nH]ccc3c2n1[C@@H]1C[C@H]2CC[C@@H](C1)N2Cc1ccccc1 [Example 271, 1-(8-Benzyl-8-aza-bicyclo[3.2.1]oct-3-yl)-2-methyl-1,6-dihydro-1,3,5,6-tetraaza-as-indacene]	< 500 nM
Cc1nc2cnc3[nH]ccc3c2n1[C@@H]1CCCN(C(=O)CC#N)C1 [Example 272]	< 500 nM
Cc1nc2cnc3[nH]ccc3c2n1[C@H]1CC[C@H](N)CC1 [Example 273, 4-(2-Methyl-6H-1,3,5,6-tetraaza-as-indacen-1-yl)-cyclohexylamine]	< 500 nM
N#CCCN1CCC(n2c(CC(=O)N3CC(F)(F)C3)nc3cnc4[nH]ccc4c32)CC1 [Example 274, 3-(4-{2-[2-(3,3-Difluoro-azetidin-1-yl)-2-oxo-ethyl]-6H-1,3,5,6-tetraaza-as-indacen-1-yl]-piperidin-1-yl}-propionitrile]	< 500 nM
CC(C)(C)OC(=O)N[C@H]1CC[C@H](n2nnc3cnc4[nH]ccc4c32)CC1 [Example 276, [4-(6H-1,2,3,5,6-Pentaaza-as-indacen-1-yl)-cyclohexyl]-carbamic acid tert-butyl ester]	< 500 nM
OCc1nc2cnc3[nH]ccc3c2n1C1CCN(Cc2cccnc2)CC1 [Example 278, [1-(1-Pyridin-3-ylmethyl-piperidin-4-yl)-1,6-dihydro-1,3,5,6-tetraaza-as-indacen-2-yl]-methanol]	< 500 nM
c1cncc(CN2CCC(n3nnc4cnc5[nH]ccc5c43)CC2)c1 [Example 282, 1-(1-Pyridin-3-ylmethyl-piperidin4-yl)-1,6-dihydro-1,2,3,5,6-pentaaza-as-indacene]	< 500 nM
Cc1nc2cnc3[nH]ccc3c2n1C1CCN(Cc2cccnc2)CC1 [Example 283, 2-Methyl-1-(1-pyridin-3-ylmethyl-piperidin-4-yl)-1,6-dihydro-1,3,5,6-tetraaza-as-indacene]	< 500 nM
CN1CCC[C@H]1C(=O)N1CCC(n2nnc3cnc4[nH]ccc4c32)CC1 [Example 284, ((S)-1-Methyl-pyrrolidin-2-yl)-[4-(6H-1,2,3,5,6-pentaaza-as-indacen-1-yl)-piperidin-1-yl]-methanone]	< 500 nM
Cc1nc2cnc3[nH]ccc3c2n1C1CCN(C(=O)[C@@H]2CCCN2C)CC1 [Example 285]	< 500 nM
O=C(Cc1nc2cnc3[nH]ccc3c2n1C1CCN(Cc2cccnc2)CC1)N1CCC(F)(F)CC1 [Example 286, 1-(4,4-Difluoro-piperidin-yl)-2-[1-(1-pyridin-3-ylmethyl-piperidin-4-yl)-1,6-dihydro-1,3,5,6-tetraaza-as-indacen-2-yl]-ethanone]	< 500 nM
N#Cc1nc2cnc3[nH]ccc3c2n1C1CCN(Cc2cccnc2)CC1 [Example 290, 1-(1-Pyridin-3-ylmethyl-piperidin-4-yl)-1,6-dihydro-1,3,5,6-tetraaza-as-indacene-2-carbonitrile]	< 500 nM
N#CCCN1CCC(n2c(C#N)nc3cnc4[nH]ccc4c32)CC1 [Example 293, 1-[1-(2-Cyano-ethyl)-piperidin-4-yl]-1,6-dihydro-1,3,5,6-tetraaza-as-indacene-2-carbonitrile]	< 500 nM
FC(F)(F)c1nc(CN2CCC(n3cnc4cnc5[nH]ccc5c43)CC2)cs1 [Example 295, 1-[1-(2-Trifluoromethyl-thiazol-4-ylmethyl)-piperidin-4-yl]-1,6-dihydro-1,3,5,6-tetraaza-as-indacene]	< 500 nM
O=C(CC(F)(F)F)N1CCC[C@@H](n2cnc3cnc4[nH]ccc4c32)C1 [Example 296]	< 500 nM
CC(C)(C#N)C(=O)N1CCC[C@@H](n2cnc3cnc4[nH]ccc4c32)C1 [Example 297, 2,2-Dimethyl-3-oxo-3-[(R)-3-(6H-1,3,5,6-tetraaza-as-indacen-1-yl)-piperidin-1-yl]-propionitrile]	< 500 nM
c1cc2c(ncc3nc(C4CC4)n(C4CCNCC4)c32)[nH]1 [Example 298, 2-Cyclopropyl-1-piperidin-4-yl-1,6-dihydro-1,3,5,6-tetraaza-as-indacene]	< 500 nM

The next lines start with the values.

Ki	SMILES
< 500 nM	NC(=O)Cc1nc2cnc3[nH]ccc3c2n1C1CCN(Cc2ccccc2)CC1 [Example 245, 2-[1-(1-Benzyl-piperidin-4-yl)-1,6-dihydro-1,3,5,6-tetraaza-as-indacen-2-yl]-acetamide]
< 500 nM	O=C([C@H]1CC[C@H](n2nnc3cnc4[nH]ccc4c32)CC1)N1CCOCC1 [Example 246, Morpholin-4-yl-[4-(6H-1,2,3,5,6-pentaaza-as-indacen-1-yl)-cyclohexyl]-methanone]
< 500 nM	CC(C)NC(=O)[C@H]1CC[C@H](n2cnc3cnc4[nH]ccc4c32)CC1 [Example 247, 4-(6H-1,3,5,6-Tetraaza-as-indacen-1-yl)-cyclohexanecarboxylic acid isopropylamide]
< 500 nM	O=C([C@H]1CCCN1)N1CCC(n2cnc3cnc4[nH]ccc4c32)CC1 [Example 248, (R)-Pyrrolidin-2-yl-[4-(6H-1,3,5,6-tetraaza-as-indacen-1-yl)-piperidin-1-yl]-methanone]
< 500 nM	O=C([C@@H]1CCCN1)N1CCC(n2cnc3cnc4[nH]ccc4c32)CC1 [Example 249, (S)-Pyrrolidin-2-yl-[4-(6H-1,3,5,6-tetraaza-as-indacen-1-yl)-piperidin-1-yl]-methanone]
< 500 nM	O=C([C@@H]1CC(F)(F)CN1)N1CCC(n2cnc3cnc4[nH]ccc4c32)CC1 [Example 250, ((S)-4,4-Difluoro-pyrrolidin-2-yl)-[4-(6H-1,3,5,6-tetraaza-as-indacen-1-yl)-piperidin-1-yl]-methanone]
< 500 nM	FC(F)(F)c1nc2cnc3[nH]ccc3c2n1C1CCNCC1 [Example 254, 1-Piperidin-4-yl-2-trifluoromethyl-1,6-dihydro-1,3,5,6-tetraaza-as-indacene]
< 500 nM	c1cc2c(ncc3ncn(CC4CCNCC4)c32)[nH]1 [Example 255, 1-Piperidin-4-ylmethyl-1,6-dihydro-1,3,5,6-tetraaza-as-indacene]
< 500 nM	N#CCCN1CCC(n2c(C(F)(F)F)nc3cnc4[nH]ccc4c32)CC1 [Example 256, 3-[4-(-2-Trifluoromethyl-6H-1,3,5,6-tetraaza-as-indacen-1-yl)-piperidin-1-yl]-propionitrile]
< 500 nM	CN(C(=O)Cc1nc2cnc3[nH]ccc3c2n1C1CCNCC1)C1CCCC1 [Example 257, N-Cyclopentyl-N-methyl-2-(1-piperidin-4-yl-1,6-dihydro-1,3,5,6-tetraaza-as-indacen-2-yl)-acetamide]
< 500 nM	O=C(Cc1nc2cnc3[nH]ccc3c2n1C1CCN(Cc2ccccc2)CC1)N1CC(F)C1 [Example 258, 2-[1-(1-Benzyl-piperidin-4-yl)-1,6-dihydro-1,3,5,6-tetraaza-as-indacen-2-yl)-1-(3-fluoro-azetidin-1-yl)-ethanone]
< 500 nM	O=C(Cc1nc2cnc3[nH]ccc3c2n1C1CCN(Cc2ccccc2)CC1)N1CC(F)(F)C1 [Example 259, 2-[1-(1-Benzyl-piperidin-4-yl)-1,6-dihydro-1,3,5,6-tetraaza-as-indacen-2-yl)-1-(3,3-difluoro-azetidin-1-yl)-ethanone]
< 500 nM	NC(=O)Cc1nc2cnc3[nH]ccc3c2n1C1CCNCC1 [Example 260, 2-(1-Piperidin-4-yl-1,6-dihydro-1,3,5,6-tetraaza-as-indacen-2-yl)-acetamide]
< 500 nM	CC(C)NC(=O)Cc1nc2cnc3[nH]ccc3c2n1C1CCNCC1 [Example 261, N-Isopropyl-2-(1-piperidin-4-yl-1,6-dihydro-1,3,5,6-tetraaza-as-indacen-2-yl)-acetamide]
< 500 nM	O=C(Cc1nc2cnc3[nH]ccc3c2n1C1CCNCC1)N1CCS(=O)(=O)CC1 [Example 262, 1-(1,1-Dioxo-1lambda*6*-thiomorpholin-4-yl)-2-(1-piperidin-4-yl-1,6-dihydro-1,3,5,6-tetraaza-as-indacen-2-yl)-ethanone]
< 500 nM	CN(C(=O)Cc1nc2cnc3[nH]ccc3c2n1C1CCN(CCC#N)CC1)C1CCCC1 [Example 263, 2-{1-[1-(2-Cyano-ethyl)-piperidin-4-yl]-1,6-dihydro-1,3,5,6-tetraaza-as-indacen-2-yl}-N-cyclopentyl-N-methyl-acetamide]
< 500 nM	N#CCCN1CCC(n2c(CC(N)=O)nc3cnc4[nH]ccc4c32)CC1 [Example 264, 2-{1-[1-(2-Cyano-ethy)-piperidin-4-yl]-1,6-dihydro-1,3,5,6-tetraaza-as-indacen-2-yl}-acetamide]
< 500 nM	O=C(Cc1nc2cnc3[nH]ccc3c2n1C1CCNCC1)NC1CCCC1 [Example 265, N-Cyclopentyl-2-(1-piperidin-4-yl-1,6-dihydro-1,3,5,6-tetraaza-as-indacen-2-yl)-acetamide]
< 500 nM	CC(C)NC(=O)Cc1nc2cnc3[nH]ccc3c2n1C1CCN(CCC#N)CC1 [Example 266, 2-{1-[1-(2-Cyano-ethyl)-piperidin-4-yl]-1,6-dihydro-1,3,5,6-tetraaza-as-indacen-2-yl}-N-isopropyl-acetamide]
< 500 nM	N#CCCN1CCC(n2c(CC(=O)N3CCS(=O)(=O)CC3)nc3cnc4[nH]ccc4c32)CC1 [Example 267, 3-(4-{2-[2-(1,1-Dioxo-1lambda*6*-thiomorpholin-4-yl)-2-oxo-ethyl]-6H-1,3,5,6-tetraaza-as-indacen-1-yl}-piperidin-1-yl)-propionitrile]
< 500 nM	N#CCCN1CCC(n2c(CC(=O)NC3CCCC3)nc3cnc4[nH]ccc4c32)CC1 [Example 268, 2-{1-[1-(2-Cyano-ethyl)-piperidin-4-yl]-1,6-dihydro-1,3,5,6-tetraaza-as-indacen-2-yl}-N-cyclopentyl-acetamide]
< 500 nM	O=C(Cc1nc2cnc3[nH]ccc3c2n1C1CCNCC1)N1CC(F)(F)C1 [Example 269, 1-(3,3-Difluoro-azetidin-1-yl)-2-(1-piperidin-4-yl-1,6-dihydro-1,3,5,6-tetraaza-as-indacen-2-yl)-ethanone]
